Some of these results come from one statement about several compounds together.
Test: Acute toxicity, intraperitoneal, mice
Format: in vivo
Settings: 200 mg/Kg intraperitoneal, five ddY male mice, after 7 days
Protocol: Each of certain sample compounds (which had been obtained in Examples 6, 7, 10 and 15-17, which will be given herein) was dissolved in water and was then administered intraperitoneally at a dose of 200 mg/Kg to a group of five ddY male mice. Those mice were fed for 7 days while observing them.

Question: With `CCN(CC)CC#CC(=O)c1ccccc1` [Example 17] as the molecule, how does the abnormality observed read?
Answer: no abnormality was observed

Question: What about the survival of mice of the same molecule?
Answer: all the mice were still alive

Question: With `CN(C)CC#CC(=O)c1ccccc1` [Example 15, N-(4-Phenyl-4-oxo-2-butynyl)-N,N-dimethylamine] as the molecule, how does the abnormality observed read?
Answer: no abnormality was observed

Question: And the survival of mice?
Answer: all the mice were still alive

Question: Which results are given for `CCCN(CC)CC#CC(=O)c1ccccc1` [Example 16, N-(4-Phenyl-4-oxo-2-butynyl)-N-ethyl-N-n-propylamine]?
Answer: abnormality observed: no abnormality was observed; survival of mice: all the mice were still alive

Source: patent US4728659A, “Aminomethyl derivatives and preparation process thereof as well as platelet aggregation inhibitors containing same” (SS Pharmaceutical Co., Ltd., priority 1984, dated 1988)
